The list shows only some results of the screen, not a fair sample: it is rich in T/C values a quarter to a half above the control, in often repeated tests (any T/C) and in doses without a T/C. Other doses and runs of a compound stand elsewhere. T/C gives the treated animals as a percentage of the vehicle group. Some entries give survivors of the animals treated and no T/C: the source files T/C as zero there, which appears to mark a toxic dose or a test without result, not a measured value. Some survivor counts are full or nearly so, which does not show that the dose was tolerated: the source hardly ever lists a survival T/C far under the control, and the zero likely stands for such cases as well. Survivors were counted at the toxicity check, usually on the fifth day, unless a day is given; later deaths do not show. Schedule codes are those of the source, taken here to give the interval after Q, in days (D) or hours (H), and the number of doses after X. Where survival is the endpoint, the PubChem record calls one and a half times the control and up active, and a quarter to a half above the control has no call in these data; cut-offs in other NCI protocols can differ. Peptide text beside a SMILES is read from it. * marks the point of attachment. Cbz = O=C(OCc1ccccc1)*; Bn = c1ccc(C*)cc1
System: BDF1 mice, B16 melanoma ip, median survival T/C
Experiment: NCI In Vivo Anticancer Drug Screen. Data for tumor model B16 Melanoma (intraperitoneal) in B6D2F1 (BDF1) mice
Settings: T/C endpoint: median survival time, higher T/C = longer survival
Outline: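 Transplantable tumor model; survival or tumor size measured; reported as T/C, treated over vehicle control.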

[1] = dose: 200.0 mg/kg/injection, schedule: Q01DX009 (ip), vehicle: Klucel (hydroxypropylcellulose) (HPC)
[2] = dose: 25.0 mg/kg/injection, schedule: Q01DX009 (ip), vehicle: saline with Tween-80
[3] = dose: 100.0 mg/kg/injection, schedule: Q01DX009 (ip), vehicle: saline with Tween-80
[4] = dose: 200.0 mg/kg/injection, schedule: Q01DX009 (ip), vehicle: saline with Tween-80
[5] = dose: 400.0 mg/kg/injection, schedule: Q01DX009 (ip), vehicle: saline with Tween-80
[6] = dose: 400.0 mg/kg/injection, schedule: Q01DX009 (ip), vehicle: Klucel (hydroxypropylcellulose) (HPC)

CCN(CC)CCOc1ccc(Br)cc1
survivor count (dose: 25.0 mg/kg/injection, schedule: Q01DX009 (ip), vehicle: Klucel (hydroxypropylcellulose) (HPC)): 9 of 10
survivor count (dose: 100.0 mg/kg/injection, schedule: Q01DX009 (ip), vehicle: Klucel (hydroxypropylcellulose) (HPC)): 6 of 10
survivor count [1]: 1 of 10

C=CC1CC[N-]CC1.C=CC1CC[N-]CC1.C=CC1CC[N-]CC1.[Cl][Cr]([Cl])[Cl]
T/C (dose: 12.5 mg/kg/injection, schedule: Q04DX003 (ip), vehicle: saline with Tween-80): 126 % of control

O=[n+]1ccn2cc3ccccc3cc2c1
survivor count (dose: 15.0 mg/kg/injection, schedule: Q01DX009 (ip), vehicle: saline): 9 of 10
survivor count (dose: 30.0 mg/kg/injection, schedule: Q01DX009 (ip), vehicle: saline): 9 of 10

CCC/C=C/C=C/C1CC(O)C(O)C(=O)C1C=O (stereo unspecified)
survivor count [2]: 9 of 10
survivor count (dose: 50.0 mg/kg/injection, schedule: Q01DX009 (ip), vehicle: saline with Tween-80): 0 of 10
survivor count [3]: 0 of 10

N#Cc1cn(C2OC(CO)C(O)C2O)c2ncnc(N)c12 (stereo unspecified)
survivor count (dose: 0.5 mg/kg/injection, schedule: Q01DX009 (ip), vehicle: saline): 10 of 10
survivor count (dose: 1.0 mg/kg/injection, schedule: Q01DX009 (ip), vehicle: saline): 10 of 10
survivor count (dose: 2.0 mg/kg/injection, schedule: Q01DX009 (ip), vehicle: saline): 9 of 10

COc1cc2oc(=O)ccc2cc1[C@@H]1OC(=O)C2(C)O[C@@H]12 (stereo partly specified)
survivor count (dose: 2.5 mg/kg/injection, schedule: Q01DX009 (ip), vehicle: distilled water + Tween-80): 10 of 10

C#CCOCC(O)CCl (stereo unspecified)
survivor count [4]: 6 of 6
survivor count [5]: 1 of 6

CC(CCc1ccccc1)NC(C)C(O)c1ccc(O)cc1 (stereo unspecified)
survivor count [1]: 6 of 10
survivor count [6]: 0 of 10

COc1cc2ccc(CCNCc3ccccc3)cc2cc1OC
survivor count (dose: 200.0 mg/kg/injection, schedule: Q04DX003 (ip), vehicle: saline): 8 of 10

COC(=O)C(CC(C)C)NC(=O)C(CSCc1ccccc1)NC(=O)OCc1ccccc1 (stereo unspecified) (Cbz-Cys(Bn)-Leu-OMe; configuration not given here)
survivor count (dose: 50.0 mg/kg/injection, schedule: Q04DX003 (ip), vehicle: DMSO): 10 of 10
survivor count (dose: 100.0 mg/kg/injection, schedule: Q04DX003 (ip), vehicle: DMSO): 10 of 10
survivor count (dose: 200.0 mg/kg/injection, schedule: Q04DX003 (ip), vehicle: DMSO): 10 of 10

Nc1ccccc1SC1CC(=O)N(c2ccc(I)cc2)C1=O (stereo unspecified)
survivor count [2]: 5 of 6
survivor count [3]: 6 of 6
survivor count [1]: 9 of 10
survivor count [4]: 5 of 6
survivor count [6]: 9 of 10
survivor count [5]: 4 of 6

CC/C(C)=C1\OC(=O)C(C)C(O)C(Cc2cccnc2)NC(=O)C(NC(=O)c2ncccc2O)C(C)OC1=O (stereo unspecified)
T/C (dose: 3.13 mg/kg/injection, schedule: Q01DX009 (ip), vehicle: saline with Tween-80): 149 % of control

CCCCCN(C)/N=N/c1nc[nH]c1C(N)=O
T/C (dose: 6.25 mg/kg/injection, schedule: Q01DX009 (ip), vehicle: carboxymethylcellulose (CMC)): 132 % of control
T/C (dose: 12.5 mg/kg/injection, schedule: Q01DX009 (ip), vehicle: carboxymethylcellulose (CMC)): 126 % of control
survivor count (dose: 25.0 mg/kg/injection, schedule: Q01DX009 (ip), vehicle: carboxymethylcellulose (CMC)): 6 of 6
survivor count (dose: 50.0 mg/kg/injection, schedule: Q01DX009 (ip), vehicle: carboxymethylcellulose (CMC)): 6 of 6
survivor count (dose: 100.0 mg/kg/injection, schedule: Q01DX009 (ip), vehicle: carboxymethylcellulose (CMC)): 6 of 6

O=C1C=C(C2CCCCC2)C(=O)c2ccccc21
survivor count [4]: 10 of 10
survivor count [5]: 10 of 10

Cc1cc(C)c(C(=O)CC(=O)c2cccnc2)c(C)c1
survivor count (dose: 400.0 mg/kg/injection, schedule: Q01DX009 (ip), vehicle: saline + Tween-80 + alcohol): 10 of 10

— PubChem BioAssay AID192 (DTP/NCI, 2004)
